These are yes or no findings as the source states them, for the method shown. In cells and extracts the contact can be indirect. Some results given as binding are weak or reduced against the parent protein; the word gives no strength.
What was measured:
[1] = biological target: flag-tagged mouse Atp2a2b (SERCA2b) (mouse) (UniProt O55143); experiment: co-IP; FLAG-SERCA2b from adipocyte lysate solubilised with 1% n-dodecyl β-D-maltoside, held on anti-FLAG M2 magnetic beads (2 h, 4°C), washed in 50 mM HEPES-NaOH pH 7.0, 100 mM NaCl, 20% glycerol, 100 μM CaCl2, 0.05% LMNG, eluted with 3X FLAG peptide; blot with a polyclonal antibody for C4orf3
[2] = biological target: SERCA2b (mouse (endogenous in inguinal WAT-derived adipocytes)) (UniProt O55143); experiment: cross-linking; 15 μg beige adipocyte microsomes, 1 mM BMH, 40 mM MOPS pH 7.0, 3.2 mM MgCl2, 75 mM KCl, 1 mM EGTA, 1 h at 25°C; compounds added to set the catalytic states of SERCA2b (E2, E2-ATP, E1Ca2, E1PCa2, E2V, E1·AlFx·ADP, E2·AlF4) and free Ca2+ 0-100 μM; blot, band at ~120 kDa

Amino acid sequences for entries named in this document (tags omitted).
UniProt O55143: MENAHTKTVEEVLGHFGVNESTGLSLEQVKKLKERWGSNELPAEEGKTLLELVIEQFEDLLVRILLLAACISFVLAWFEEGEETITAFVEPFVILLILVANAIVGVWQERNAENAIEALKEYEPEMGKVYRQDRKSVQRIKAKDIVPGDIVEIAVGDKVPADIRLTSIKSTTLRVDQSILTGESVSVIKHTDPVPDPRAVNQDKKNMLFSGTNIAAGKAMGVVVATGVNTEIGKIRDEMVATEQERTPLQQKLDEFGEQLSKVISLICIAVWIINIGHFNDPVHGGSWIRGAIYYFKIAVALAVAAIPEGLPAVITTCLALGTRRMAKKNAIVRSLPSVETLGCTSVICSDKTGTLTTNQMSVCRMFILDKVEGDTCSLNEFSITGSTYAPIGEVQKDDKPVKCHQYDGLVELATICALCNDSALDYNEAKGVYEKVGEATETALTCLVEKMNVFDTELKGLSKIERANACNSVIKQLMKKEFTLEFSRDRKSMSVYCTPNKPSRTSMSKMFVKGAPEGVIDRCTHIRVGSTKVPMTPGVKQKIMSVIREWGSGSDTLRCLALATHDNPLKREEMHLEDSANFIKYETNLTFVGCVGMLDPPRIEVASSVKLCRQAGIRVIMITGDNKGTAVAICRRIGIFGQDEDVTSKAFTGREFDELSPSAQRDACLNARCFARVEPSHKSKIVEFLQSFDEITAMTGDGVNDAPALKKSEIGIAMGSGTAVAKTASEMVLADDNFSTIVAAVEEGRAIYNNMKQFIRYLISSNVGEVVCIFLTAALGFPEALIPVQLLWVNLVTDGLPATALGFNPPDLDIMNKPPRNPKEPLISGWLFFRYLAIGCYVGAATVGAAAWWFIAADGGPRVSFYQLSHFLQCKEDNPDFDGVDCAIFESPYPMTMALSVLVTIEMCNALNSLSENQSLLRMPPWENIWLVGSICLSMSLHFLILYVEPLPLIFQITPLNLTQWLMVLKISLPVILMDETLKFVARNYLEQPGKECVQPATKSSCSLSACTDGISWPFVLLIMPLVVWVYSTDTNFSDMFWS

Row | Binder | binding [1] | binding [2]
1 | endogenous C4orf3/ALN protein (protein, UniProt Q99M08 1-65) MEVSQAASGTDGVRERRGSFEAGRRNQDEAPQSGMNGLPKHSYWLDLWLFILFDLALFVFVYLLP | binds | 
2 | Mouse C4ORF3/ALN^W48C (protein, UniProt Q99M08 1-65) MEVSQAASGTDGVRERRGSFEAGRRNQDEAPQSGMNGLPKHSYWLDLCLFILFDLALFVFVYLLP |  | binds
